{
  "source": "the supplement of paper PMC3334620",
  "note": "Over roughly 33,000 sequences, “E-score (-0.5 to 0.5)” has its median near -8e-05; the highest 2% begin near 0.23. The list shows a part of the results.",
  "data": [
    {"biological_target": "T1, Nrg2 (UniProt P38082)", "T1 sequence": "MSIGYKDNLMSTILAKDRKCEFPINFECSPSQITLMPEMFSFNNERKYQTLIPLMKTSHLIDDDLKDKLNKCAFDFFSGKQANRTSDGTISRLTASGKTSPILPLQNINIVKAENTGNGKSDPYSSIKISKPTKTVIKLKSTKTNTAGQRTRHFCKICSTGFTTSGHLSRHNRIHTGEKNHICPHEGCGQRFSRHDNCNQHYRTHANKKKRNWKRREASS", "assay": "PBM E-score (8-mer binding enrichment) (E-score (-0.5 to 0.5)); higher = stronger / more preferred TF binding", "settings": "protein concentration: 100 nM; construct: GST-full length", "in_short": "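E-scores (a modified Wilcoxon-Mann-Whitney statistic) were assigned by the Universal PBM Analysis Suite to every ungapped eight-base word pooled with its reverse complement. The input came from universal all-10-mer Agilent arrays made double-stranded by primer extension and probed with GST-tagged yeast transcription factors at about 100-200 nM. Fluorescent anti-GST detected bound protein, and masliner normalised the scans.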", "values": [
      {"sequence": "ACCGTTCC", "PBM E-score": 0.0793},
      {"sequence": "CCGTGAGC", "PBM E-score": -0.305},
      {"sequence": "CACCAGTA", "PBM E-score": -0.0531},
      {"sequence": "GCAGTGGC", "PBM E-score": -0.173},
      {"sequence": "ATAGGGGC", "PBM E-score": 0.0959},
      {"sequence": "CAGTATGG", "PBM E-score": 0.0291},
      {"sequence": "TCAACCGA", "PBM E-score": 0.163},
      {"sequence": "CATTACAA", "PBM E-score": 0.0993},
      {"sequence": "AAACTGGA", "PBM E-score": 0.0999},
      {"sequence": "AAACATAT", "PBM E-score": 0.197},
      {"sequence": "CCACAGTC", "PBM E-score": -0.276},
      {"sequence": "CAGCGTAA", "PBM E-score": -0.0376},
      {"sequence": "CGATCGTC", "PBM E-score": 0.0719},
      {"sequence": "AAGTGCCA", "PBM E-score": -0.0263},
      {"sequence": "GGATGCAA", "PBM E-score": -0.105},
      {"sequence": "CGAAAAAC", "PBM E-score": 0.0099},
      {"sequence": "GTTGTGGA", "PBM E-score": 0.0936},
      {"sequence": "CCCGTCCC", "PBM E-score": -0.143},
      {"sequence": "CAAGGCTC", "PBM E-score": -0.208},
      {"sequence": "GTAACTGA", "PBM E-score": -0.0774},
      {"sequence": "CGAGCATA", "PBM E-score": -0.0765},
      {"sequence": "GACCTAAA", "PBM E-score": 0.0439},
      {"sequence": "AGGTAGGA", "PBM E-score": -0.19},
      {"sequence": "ACACGATA", "PBM E-score": -0.0296},
      {"sequence": "GAAAGCAA", "PBM E-score": 0.18},
      {"sequence": "TGGTCCAA", "PBM E-score": -0.112},
      {"sequence": "CTAGGGAG", "PBM E-score": -0.22},
      {"sequence": "CTAGAACA", "PBM E-score": 0.0487},
      {"sequence": "CCGTAAGA", "PBM E-score": -0.122},
      {"sequence": "ACCTTAGC", "PBM E-score": 0.025},
      {"sequence": "GGGCCCCC", "PBM E-score": -0.279},
      {"sequence": "AACCCCGA", "PBM E-score": 0.0604},
      {"sequence": "TGAGCGAA", "PBM E-score": 0.177},
      {"sequence": "AGGGTCAT", "PBM E-score": 0.132},
      {"sequence": "AGCGTACG", "PBM E-score": -0.129},
      {"sequence": "GTGTAGTA", "PBM E-score": -0.0167},
      {"sequence": "CTGGCTGA", "PBM E-score": -0.0182},
      {"sequence": "AACGTCGT", "PBM E-score": -0.066},
      {"sequence": "AGTCGCAA", "PBM E-score": 0.0495},
      {"sequence": "ATTAATAG", "PBM E-score": 0.226},
      {"sequence": "AAGGCCCT", "PBM E-score": 0.187},
      {"sequence": "CCCACCAA", "PBM E-score": 0.0517},
      {"sequence": "CTCAAAGC", "PBM E-score": 0.0269},
      {"sequence": "AATCGGTA", "PBM E-score": -0.0396},
      {"sequence": "AGTTGGAA", "PBM E-score": -0.0362},
      {"sequence": "CATTCGCA", "PBM E-score": -0.0034},
      {"sequence": "GAATGTGA", "PBM E-score": -0.0219},
      {"sequence": "TCACCTAA", "PBM E-score": -0.0162},
      {"sequence": "GAGAGCTC", "PBM E-score": -0.108},
      {"sequence": "CTCCACTA", "PBM E-score": 0.0636},
      {"sequence": "AATCGCGT", "PBM E-score": 0.186},
      {"sequence": "AGATCCAG", "PBM E-score": 0.168},
      {"sequence": "ATCAGTTC", "PBM E-score": -0.0751},
      {"sequence": "GCCTTGAC", "PBM E-score": -0.122},
      {"sequence": "AAGTAACA", "PBM E-score": 0.191},
      {"sequence": "AAAAAGGT", "PBM E-score": 0.0514},
      {"sequence": "ACTACGAG", "PBM E-score": -0.0332},
      {"sequence": "CCTGCTCA", "PBM E-score": 0.0671},
      {"sequence": "CCGCTGAA", "PBM E-score": 0.0746},
      {"sequence": "ATTGAAGC", "PBM E-score": -0.0755},
      {"sequence": "TATTTGAA", "PBM E-score": 0.0187},
      {"sequence": "CCAACACA", "PBM E-score": 0.134},
      {"sequence": "AATCGCAT", "PBM E-score": 0.245},
      {"sequence": "AAGGTCTA", "PBM E-score": -0.111},
      {"sequence": "CTTAGACA", "PBM E-score": -0.108},
      {"sequence": "ACTCATAC", "PBM E-score": 0.0469},
      {"sequence": "CCAGCGGC", "PBM E-score": -0.0283},
      {"sequence": "CTAGTAGC", "PBM E-score": -0.0886},
      {"sequence": "GCCCAGAA", "PBM E-score": 0.0139},
      {"sequence": "CCTTAGCG", "PBM E-score": -0.131},
      {"sequence": "CGGTGACG", "PBM E-score": -0.00929},
      {"sequence": "GCGCGCAC", "PBM E-score": 0.165},
      {"sequence": "CTCATCTC", "PBM E-score": 0.207},
      {"sequence": "ATAACTAT", "PBM E-score": -0.013},
      {"sequence": "TACTAATA", "PBM E-score": 0.0648},
      {"sequence": "GGCATGAC", "PBM E-score": -0.106},
      {"sequence": "CGCCTCAA", "PBM E-score": -0.0538},
      {"sequence": "AATCCGGA", "PBM E-score": 0.164},
      {"sequence": "AATGCGTG", "PBM E-score": -0.0113},
      {"sequence": "CACTTTTA", "PBM E-score": 0.0308},
      {"sequence": "CGTGTGTA", "PBM E-score": 0.0917},
      {"sequence": "GTTAGACA", "PBM E-score": 0.102},
      {"sequence": "GTCGAGTA", "PBM E-score": -0.0512},
      {"sequence": "AACGCGAA", "PBM E-score": 0.249},
      {"sequence": "AGTGAGTA", "PBM E-score": 0.214},
      {"sequence": "ACGCCGCC", "PBM E-score": -0.217},
      {"sequence": "GGCTCTTA", "PBM E-score": -0.275},
      {"sequence": "AACCTCAA", "PBM E-score": -0.0094},
      {"sequence": "CATATGCG", "PBM E-score": 0.0817},
      {"sequence": "CGTATTTC", "PBM E-score": 0.0134},
      {"sequence": "ATTTACCG", "PBM E-score": -0.0198},
      {"sequence": "GTCCGGTA", "PBM E-score": -0.0698},
      {"sequence": "TCGGAAGA", "PBM E-score": -0.312},
      {"sequence": "ATGGGGTA", "PBM E-score": 0.127},
      {"sequence": "GATTCGAC", "PBM E-score": 0.141},
      {"sequence": "ATGGATCC", "PBM E-score": 0.102},
      {"sequence": "CGAGGACG", "PBM E-score": -0.00679},
      {"sequence": "GGGTTGTA", "PBM E-score": 0.0662},
      {"sequence": "GTACCAAA", "PBM E-score": 0.114},
      {"sequence": "TGCGCGAA", "PBM E-score": 0.175},
      {"sequence": "TCCATCGA", "PBM E-score": -0.021},
      {"sequence": "AAATCGCG", "PBM E-score": 0.233},
      {"sequence": "GGTAGAGA", "PBM E-score": 0.0968},
      {"sequence": "TCTACTAA", "PBM E-score": 0.178},
      {"sequence": "CAATACCA", "PBM E-score": 0.192},
      {"sequence": "ACGGAGCA", "PBM E-score": 0.0328},
      {"sequence": "ACTTTACT", "PBM E-score": 0.077},
      {"sequence": "CCTCCACC", "PBM E-score": -0.238},
      {"sequence": "CAACTGGC", "PBM E-score": 0.0483},
      {"sequence": "ACGATCAA", "PBM E-score": 0.0329}
    ]}
  ]
}
